Assay results published in patent US20100105652A1, “PURINES AS CYSTEINE PROTEASE INHIBITORS” (Glaxo Group Limited, priority 2007, published 2010).
Some entries share one result that the patent states for a list of compounds.

Tested on: Plasmodium falciparum parasite
Experiment: whole cell activity against the Plasmodium falciparum parasite
Assay type: cell-based
Settings: comparison with prior art comparators
From the text: Equation 7 describes the apparent KI for competitive compounds and was substituted into equations 5 and 6 to generate the relevant binding constants from the fitting routine. In addition, the initial and final velocities were fit to equation 3 to further define the binding mechanism and potency. A complete discussion of this kinetic treatment has been fully described (Morrison et al., Adv. Enzymol. Relat. Areas Mol. Biol., 1988, 61, 201). 2) Determination of Whole Cell Activity Against the Plasmodium falciparum Parasite Compounds can be evaluated for whole cell activity against the Plasmodium falciparum parasite according to the procedure described in Sijwali S, and Rosenthal P. J., (2004) Proceedings of the National Academy of Sciences of the United States of America (PNAS) 101(13), 4384-4389 (see in particular “Measurement of Parasite Growth rates and Inhibitor Sensitivity” on page 4385); IC50 values can be calculated as described in Singh A. and Rosenthal P. J., (2001) Antimicrobial Agents and Chemotherapy 45(3), 949-951 (see in particular page 950, first column); synchronised parasites can be prepared as described in Divo A. A. et al., (1985) Protozool. 32, 59-64.

Row | Compound | activity in the whole cell assay, as compared with comparative Examples 24 and 25
1 | CN(C)CCCn1cnc2c(N(NC(=O)c3cccc(-c4ccc(CN5CCN(C)CC5)cc4)n3)C3CCCCC3)nc(C#N)nc21.O=C(O)C(F)(F)F [Example 46, N′-{2-cyano-9-[3-(dimethylamino)propyl]-9H-purin-6-yl}-N′-cyclo hexyl-6-{4-[(4-methyl-1-piperazinyl)methyl]phenyl}-2-pyridinecarbohydrazide trifluoroacetate] | improved activity
2 | CN(C)CCn1cnc2c(N(CC3CCCC3)NC(=O)c3ccc(CN4CCN(C)CC4)cc3)nc(C#N)nc21.O=C(O)C(F)(F)F [Example 14, N′-{2-cyano-9-[2-(dimethylamino)ethyl]-9H-purin-6-yl}-N′-(cyclopentylmethyl)-4-[(4-methyl-1-piperazinyl)methyl]benzohydrazide trifluoroacetate] | improved activity
